Measured values taken from article PMC10150487, “m^6A readers ECT2/ECT3/ECT4 enhance mRNA stability through direct recruitment of the poly(A) binding proteins in Arabidopsis” (Genome Biology, 2023).
No constants are given. Whether binding was seen depends on the method and setting. Binding seen in cells or lysates may run through a third protein. These calls come from enrichment with a bait or labelling near it, and not all partners need be listed. Where a sequence is shown, tags or fusion partners need not be part of it.

T1: FLAG-tagged ECT2 of ECT2:ECT2/ect2-1 plants (Arabidopsis thaliana) (UniProt Q9LJE5)
T1 sequence: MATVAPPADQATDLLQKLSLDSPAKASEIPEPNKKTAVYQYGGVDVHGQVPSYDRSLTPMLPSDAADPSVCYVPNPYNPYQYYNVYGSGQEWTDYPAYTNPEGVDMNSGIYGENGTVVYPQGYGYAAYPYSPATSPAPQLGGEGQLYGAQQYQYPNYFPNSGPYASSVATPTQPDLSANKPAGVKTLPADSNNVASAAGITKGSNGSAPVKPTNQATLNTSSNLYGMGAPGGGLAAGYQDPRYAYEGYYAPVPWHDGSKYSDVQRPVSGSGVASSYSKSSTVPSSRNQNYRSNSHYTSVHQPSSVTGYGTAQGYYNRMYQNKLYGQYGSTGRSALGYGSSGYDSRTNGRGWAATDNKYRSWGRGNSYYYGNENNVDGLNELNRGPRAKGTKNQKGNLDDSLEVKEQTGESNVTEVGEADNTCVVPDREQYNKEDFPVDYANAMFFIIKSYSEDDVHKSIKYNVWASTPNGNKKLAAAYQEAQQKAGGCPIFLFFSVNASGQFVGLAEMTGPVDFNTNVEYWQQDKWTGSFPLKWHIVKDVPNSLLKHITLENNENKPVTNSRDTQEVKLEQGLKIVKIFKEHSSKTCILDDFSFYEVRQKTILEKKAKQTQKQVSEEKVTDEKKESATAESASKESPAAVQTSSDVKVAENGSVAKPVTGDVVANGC


Target: T1, FLAG-tagged ECT2 of ECT2:ECT2/ect2-1 plants (Arabidopsis thaliana)
Experiment: affinity purification with mass spectrometry; FA-IP/MS: 12-day-old ECT2:ECT2/ect2-1 seedlings fixed with 1% formaldehyde; lysate immunoprecipitated with anti-Flag M2 beads (control IgG), with and without RNase T1 treatment; eluted with 3xFlag peptide

| binding | Binder |
| --- | --- |
| binds | MBP-tagged PAB4 (natural protein, Arabidopsis thaliana, UniProt O22173 1-662, looked up, also called MBP-PAB4; source: Escherichia coli BL-21 Gold, purified (amylose resin)) MAQVQAPSSHSPPPPAVVNDGAATASATPGIGVGGGGDGVTHGALCSLYVGDLDFNVTDSQLYDYFTEVCQVVSVRVCRDAATNTSLGYGYVNYSNTDDAEKAMQKLNYSYLNGKMIRITYSSRDSSARRSGVGNLFVKNLDKSVDNKTLHEAFSGCGTIVSCKVATDHMGQSRGYGFVQFDTEDSAKNAIEKLNGKVLNDKQIFVGPFLRKEERESAADKMKFTNVYVKNLSEATTDDELKTTFGQYGSISSAVVMRDGDGKSRCFGFVNFENPEDAARAVEALNGKKFDDKEWYVGKAQKKSERELELSRRYEQGSSDGGNKFDGLNLYVKNLDDTVTDEKLRELFAEFGTITSCKVMRDPSGTSKGSGFVAFSAASEASRVLNEMNGKMVGGKPLYVALAQRKEERRAKLQAQFSQMRPAFIPGVGPRMPIFTGGAPGLGQQIFYGQGPPPIIPHQPGFGYQPQLVPGMRPAFFGGPMMQPGQQGPRPGGRRSGDGPMRHQHQQPMPYMQPQMMPRGRGYRYPSGGRNMPDGPMPGGMVPVAYDMNVMPYSQPMSAGQLATSLANATPAQQRTLLGESLYPLVDQIESEHAAKVTGMLLEMDQTEVLHLLESPEALNAKVSEALDVLRNVNQPSSQGSEGNKSGSPSDLLASLSINDHL |
| binds | MBP-tagged PAB2 (natural protein, Arabidopsis thaliana, UniProt P42731 1-629, looked up, also called MBP-PAB2; source: Escherichia coli BL-21 Gold, purified (amylose resin)) MAQVQLQGQTPNGSTAAVTSAPATSGGATATQFGNTSLYVGDLDFNVTDSQLFDAFGQMGTVVTVRVCRDLVTRRSLGYGYVNFTNPQDAARAIQELNYIPLYGKPIRVMYSHRDPSVRRSGAGNIFIKNLDESIDHKALHDTFSSFGNIVSCKVAVDSSGQSKGYGFVQYANEESAQKAIEKLNGMLLNDKQVYVGPFLRRQERDSTANKTKFTNVYVKNLAESTTDDDLKNAFGEYGKITSAVVMKDGEGKSKGFGFVNFENADDAARAVESLNGHKFDDKEWYVGRAQKKSERETELRVRYEQNLKEAADKFQSSNLYVKNLDPSISDEKLKEIFSPFGTVTSSKVMRDPNGTSKGSGFVAFATPEEATEAMSQLSGKMIESKPLYVAIAQRKEDRRVRLQAQFSQVRPVAMQPSVGPRMPVYPPGGPGIGQQMFYGQAPPAMIPPQPGYGYQQQLVPGMRPGGGPVPSFFMPMVQPQQQRPGGGRRPGGIQHSQQQNPMMQQQMHPRGRMFRYPQGRGGSGDVPPYDMGNNMPLTIGALASNLSNATPEQQRTMLGEVLYPLVEQVEAESAAKVTGMLLEMDQTEVLHLLESPEALKAKVAEAMDVLRSVAAGGATEQLASLNLS |
| binds | maltose-binding protein (MBP)-tagged ECT3 (natural protein, Arabidopsis thaliana, UniProt F4K1Z0 1-495, looked up, also called MBP-ECT3; source: Escherichia coli, purified recombinant protein) MANPDHVSDVLHNLSIDPTTKALAPDSETKLQGAYGGNGNDFLLNDELVEATKIGKPSLLSKDGGVTKDKGSNLKKLGYQSAAYNAKGSYGKGAYAYGYYPPAYQYPRHGYTGSYASGKTNLQYQYLTQQGRSAGNGQSYGGYMDNIYSNYGMCGPYTNGYGYGSYGYDSWKYMPNWYAVNNTYKPRNGYHGYGKENIEGLNEMNRGPRAKGFNSQDGSKVMAVSLKEQRVTETEKLSEDVSLLDPKDYNKIDFPETYTEAKFYVIKSYSEDDIHKSIKYSVWSSTPNGNKKLDASYNEAKQKSDGCPVFLLFSVNTSGQFVGLAEMVGPVDFNKTVEYWQQDKWIGCFPVKWHFVKDIPNSSLRHITLENNENKPVTNSRDTQEVKLEQGIKVIKIFKDHASKTCILDDFEFYENRQKIIQERKSKHLQIKKQTLVANADKGVMSKINLVKPQESTTASEDAAALGVAAEVTKESKVVKETELPVEKNAVATAC |
